{"source": "patent US11649220B2", "about": "(DEMOTECH.INC., priority 2018, dated 2023)", "assay": "In vitro free radical inhibition test (DPPH method)", "conditions": "8 μL of 20 mmol/L compound in 1 mL DPPH 0.059 mg/mL ethanol, 60 min dark, 517 nm", "from_the_text": "1. In Vitro Free Radical Inhibition Test (DPPH Method)\nThe single electron of DPPH radical has a strong absorption at […], and its alcohol solution is purple. In the presence of a free radical scavenger, the absorption of DPPH radical is weakened or disappeared for the reason that the free radical scavenger is paired with the single electron of DPPH radical, and the degree of discoloration is quantitatively related to the number of electrons DPPH radical receives. Therefore, a spectrophotometer can be used to quickly and quantitatively analyze the free radical scavenging rate of the compound.\n1) 1 mL solution of DPPH in absolute ethanol (concentration: 0.059 mg/mL) was taken; 2) 8 μL of the compound to be tested (20 mmol/L) were added; 3) after mixing well, the resultant was kept in dark at room temperature for 60 minutes, 4) the absorbance of the sample at 517 nm was measured.", "note": "At least one structure is not confirmed: it was looked up by name or label, or the drawing left a doubt."}
{"smiles": "COC(=O)CSC(C)(C)Sc1cc(C(C)(C)C)c(O)c(C(C)(C)C)c1", "note": "[Compound 1, methyl 2-((2-((3,5-di-tert-butyl-4-hydroxyphenyl)thio)propan-2-yl)thio)acetate]", "values": [{"measurement": "Inhibition rate %", "setting": "DPPH", "result": 37.2, "unit": "%"}, {"measurement": "Relative inhibition ability on free radicals", "setting": "inhibition rate of AGI1067 on DPPH defined as 100", "result": 85.3}]}
